Test results as given in publication PMC3215713.

By UniProt entry, the sequences of proteins in these tests, tags left out. Residues count along the entry.
UniProt P01127, 82-190: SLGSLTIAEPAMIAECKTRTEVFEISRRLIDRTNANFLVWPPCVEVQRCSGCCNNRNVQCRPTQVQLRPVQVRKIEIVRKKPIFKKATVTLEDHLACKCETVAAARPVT

Biological target: PDGF-BB (platelet-derived growth factor BB) (UniProt P01127)
Assay: filter binding
Conditions: PDGF-BB and ApoE: PBS pH 7.4, 1 mM MgCl2, 0.025% Tween 20; thrombin: 50 mM Tris pH 7.5, 100 mM NaCl, 1 mM MgCl2, 5 mM KCl, 1 mM CaCl2, 0.025% Tween 20; 1 h; commercial protein; label: 5'-FAM; single-stranded DNA

Question: With “CACAGGCTACGGCACGTAGAGCATCACCATGATCCTGTG [Green PDGF aptamer 36t]” as the sequence, how does the Kd read?
Answer: 0.093 nM

For at least one entry, the source does not settle the construct or the ends of the probe.
